# “And” between values parts separate entries of the source, which are not always exact repeats. Equal entries are not always repeated. Some of the results follow. The main result of the screen is listed elsewhere. These columns were measured beside it and carry no call. Most of these compounds were active or inconclusive in the main read-out, so they are no random draw. Words in brackets tell the shape of the fitted curve; partial curves, single points and poor fits give uncertain potencies.
# Test: qHTS Assay for Lipid Storage Modulators in Drosophila S3 Cells;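 on cell number change: cells counted by Cell Tracker Red CMTPX staining in the red channel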
# Details: BODIPY lipid droplet fluorescence, 18-24 h; for cell number change: measured here: cell count max response, cells fed with added oleic acid
# In short: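 Laser-scanning cytometry quantifies lipid droplet accumulation (500–530 nm total intensity; droplet/cell object ratio) in oleic acid-fed (400 uM added) Drosophila S3 cells treated with a concentration series. 20 uM Triacsin C defined 100% inhibition.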
# [1] = measured here: lipid fluorescence (Fed channel) AC50, cells fed with added oleic acid
# [2] = measured here: cell number channel AC50, cells fed with added oleic acid
Compound,cell number change,AC50 [1],AC50 [2]
Cc1cc(NC(=O)c2cccc(Oc3ccccc3)c2)n[nH]1,22.4%,"7.31 µM [rising, partial curve, poor fit]",
COC(=O)c1nn(-c2ccccc2)c(Cl)c1/C=N/OCc1ccc(C)cc1,-27.2%,,"0.184 µM [falling, full curve, poor fit]"
CCN(c1ccc(Cl)cc1)S(=O)(=O)c1nnc(NC(=O)C(C)C)s1,1.42%,,
CN(Cc1ccco1)c1ncnc2ccc(-c3ccc4c(c3)OCO4)cc12,-10.7% and 19%,"820 nM [falling, single point] and 29.1 µM [rising, single point]","0.82 µM [falling, full curve, poor fit]"
O=C(CSc1cn(CCNC(=O)c2ccccc2)c2ccccc12)NCC1CCCO1 (stereo not drawn),-54.5%,"29.1 µM [falling, single point]","23.1 µM [falling, partial curve]"
COc1cc(NC(=O)CCn2c(=S)oc3ccccc32)cc(OC)c1OC,0.308%,"0.0058 µM [falling, full curve, poor fit]",
Cc1ccccc1Nc1nc(-c2sc(NC(=O)c3ccco3)nc2C)cs1,,"0.0651 µM [rising, full curve, poor fit]","2.59 µM [rising, partial curve]"
Cc1ccc(C2CC(=O)c3cnc(N4CC(C)CC(C)C4)nc3C2)cc1 (stereo not drawn),-30.2%,"18.4 µM [rising, single point]","29.1 µM [falling, single point]"
COc1cccc(NC(=S)N(CCN(C)C)C(C)c2ccco2)c1 (stereo not drawn),8.88%,,
Clc1ccc(CN2CCSCC2)cc1Cl,-1.4%,"29.1 µM [falling, single point]",
CC(C)(C)NC(=O)NC(=O)COc1ccc(Br)cc1Br,-21.8%,,
COc1cc(OC)cc(C(=O)Nc2cccc(N3CCCC3)c2)c1,-5.48%,,
O=C(CSc1nnc(-c2ccncc2)n1Cc1ccco1)Nc1nc(-c2ccccc2)cs1,62.1%,"0.58 µM [falling, partial curve, poor fit]","29.1 µM [rising, single point]"
Cc1cc(C)nc(NS(=O)(=O)c2ccc(N3C(=O)C4CCCCC4C3=O)cc2)n1 (stereo not drawn),14.5%,"0.631 µM [rising, partial curve, poor fit]",
Cc1ccsc1C(=O)NNC(=S)NC1CCCCC1,-13.3%,,
Cc1ccc(NC(=O)c2ccc(S(=O)(=O)NCc3ccco3)cc2)cc1,7.39%,"6.51 µM [rising, single point]",
FC(F)Oc1ccc(NC(=S)NC2CCCCCCC2)cc1,4.7%,"0.116 µM [rising, full curve, poor fit]",
N=c1c(C(=O)NCC2CCCO2)cc2c(=O)n3ccccc3nc2n1Cc1ccccc1Cl (stereo not drawn),0.19%,,
COc1cccc(-c2nc(CS(=O)CC(=O)NCCCOC(C)C)c(C)o2)c1 (stereo not drawn),,"6.51 µM [rising, single point]",

Compound,cell number change,AC50 [1],AC50 [2]
Cc1ccc(S(=O)(=O)NC(=NC2CCCCC2)c2ccccc2)cc1,14.5%,,
COCCN(C(=O)COC(=O)c1cc(C)oc1C)c1c(N)n(Cc2ccccc2)c(=O)[nH]c1=O,,,"6.51 µM [rising, single point]"
CCCn1c(N)c(C(=O)COC(=O)CNC(=O)c2ccccc2OCC)c(=O)[nH]c1=O,37%,"23.1 µM [rising, partial curve, poor fit]","29.1 µM [rising, single point]"
COC(=O)c1cc(S(=O)(=O)NC2CCCCC2)cn1C,,"29.1 µM [rising, partial curve, poor fit]",
Cc1ccc2sc(NNC(=O)C3COc4ccccc4O3)nc2c1C (stereo not drawn),-12.1%,"20.6 µM [falling, single point]",
CC(/C=N/NC(=O)Cc1cccs1)=C\c1ccco1,-34.4%,"23.1 µM [falling, single point]","18.4 µM [falling, single point]"
COc1ccc([N+](=O)[O-])cc1NC(=O)CSc1nc(C)cc(C)n1,9.26%,"0.58 µM [rising, single point]",
c1ccc(OCCSc2nnnn2C2CCCCC2)cc1,72.3%,"2.31 µM [rising, single point]","6.51 µM [rising, partial curve]"
O=c1c2c3c(sc2n2cnnc2n1CCc1ccccc1)CCCC3,,"1.46 µM [rising, full curve]","1.3 µM [rising, partial curve]"
N=c1n(CCc2ccccc2)c2ccccc2n1Cc1ccccc1F,6.3%,,
CCN(CC)Cc1c(C(=O)N/N=C/c2ccccn2)nnn1-c1nonc1N,59%,"0.116 µM [falling, single point]","29.1 µM [rising, single point]"
CCCc1cc(Nc2cccc(OCC)c2)n2ncnc2n1,-15.4%,"0.651 µM [falling, single point]",
CC(C)(C)NC(=O)COC(=O)c1cc(Cl)ccc1[N+](=O)[O-],-16.3%,"0.146 µM [falling, full curve]",
O=C(Nc1ccon1)c1csc2ccccc12,11.9%,"2.06 µM [rising, partial curve, poor fit]",
CC(NC(=O)Nc1cccc(F)c1)c1ccc2c(c1)OCO2 (stereo not drawn),30.6%,,"8.91 µM [rising, partial curve]"
COc1ccc(-c2c[n+]3c(n2-c2ccccc2)SCC3)cc1OC,-34.2%,"0.92 µM [falling, full curve]","0.00461 µM [falling, full curve, poor fit]"
O=C1CSc2ccc(S(=O)(=O)NCc3ccccc3)cc2N1,14.6%,,
Cc1cc(NS(=O)(=O)c2ccc(NC(=O)CCCOc3ccc(Cl)cc3)cc2)no1,-62.3%,"0.116 µM [falling, single point]","20.6 µM [falling, single point]"
Cc1ccc(-c2noc(CN3CCN(C(c4ccccc4)c4ccccc4)CC3)n2)cc1,-14.4%,"1.64 µM [falling, partial curve]",

Compound,cell number change,AC50 [1],AC50 [2]
CN(Cc1ccccc1)C(=O)CN1C(=O)NC(C)(c2ccc(Cl)cc2)C1=O (stereo not drawn),14.9%,,
CCC(Oc1ccccc1)C(=O)N1CCN(CC)CC1 (stereo not drawn),-53.7%,"29.1 µM [falling, single point]","11.6 µM [falling, partial curve]"
O=C(c1cc2ccccc2o1)N1CCN(c2cccc(Cl)c2)CC1,,"7.31 µM [rising, partial curve, poor fit]",
Nc1nc(SCC(=O)Nc2ccc([N+](=O)[O-])cc2Br)n[nH]1,17.2%,"3.26 µM [rising, partial curve, poor fit]",
Cc1cccc2cc(C3CC(c4ccco4)=NN3C(=O)CCC(=O)O)c(Cl)nc12 (stereo not drawn),-16.8%,"0.103 µM [falling, full curve, poor fit]","0.146 µM [falling, full curve, poor fit]"
CCOc1ccc(NC(=O)COc2ccc3c(c2)OCO3)cc1,16.5%,,
COc1ccc(NC(=O)CSCC(=O)Nc2nnc(CC(C)C)s2)cc1,,"23.1 µM [rising, single point]",
Cc1c(Br)c([N+](=O)[O-])nn1CC(=O)Nc1ccccn1,-30.3%,,
Cc1cccc(C(=O)OCC(=O)NCCNC(=O)COC(=O)c2cccc(C)c2C)c1C,18.4%,,
C#CCOCCOCCOCCNc1nc(N2CCN(C(=O)[C@H]([C@@H](C)O)n3cc(CCCCN)nn3)CC2)nc(N2CCN(C(=O)[C@H](CCCCN)n3cc(CC(C)O)nn3)CC2)n1 (stereo partly drawn),-18.8%,"0.116 µM [falling, full curve, poor fit]",
Cc1ccc(Sc2nc3c(c(=O)[nH]c(=O)n3C)n2CCc2ccccc2)cc1,29.3%,"7.31 µM [rising, partial curve]",
COc1ccc(-n2nc3c(N4CCC(C(=O)NCC(C)c5ccccc5)CC4)nnc(C)c3c2C)cc1 (stereo not drawn),0.763%,"2.31 µM [rising, partial curve]","6.51 µM [rising, single point]"
CCOC(=O)c1sc2nc(C)nc(NCc3ccc(Cl)cc3)c2c1C,97.2%,"29.1 µM [rising, single point]","29.1 µM [rising, single point]"
N#Cc1ccc(CSc2nnc(-c3c[nH]c4ccccc34)n2-c2ccccc2)cc1,137%,"0.731 µM [falling, partial curve]","2.59 µM [falling, single point]"
CC(/C=N/n1c(COc2ccccc2)n[nH]c1=S)=C\c1ccccc1,-50.6%,"18.4 µM [falling, single point]","10.3 µM [falling, partial curve]"
CCCS(=O)(=O)N1CCC(C(=O)NCCc2ccccc2)CC1,15%,"6.51 µM [falling, single point]",
CC(=O)/C(=N\Nc1ccc(Cl)cc1Cl)Sc1cccc2cccnc12,-14%,,
O=C(COC(=O)COc1ccc2ccccc2c1)NC1CCCc2ccccc21 (stereo not drawn),-33%,"5.17 µM [falling, partial curve, poor fit]","6.51 µM [falling, partial curve, poor fit]"
CCOC(=O)Cn1c(=O)oc2cc(S(=O)(=O)Nc3c(C)cc(C)cc3C)ccc21,45.3%,"0.116 µM [rising, full curve, poor fit]","0.092 µM [rising, full curve]"

# From PubChem BioAssay AID2685 (National Center for Advancing Translational Sciences (NCATS), 2010)
